In article PMC11264951:
No constants are given. Whether binding was seen depends on the method and setting. In cells and extracts the contact can be indirect. Some results given as binding are weak or reduced against the parent protein; the word gives no strength.

B1: YTHDC2 (protein, UniProt B2RR83 1-1445)
chain: MSRPSSVSPRPPAPSGGGTGGGGGGSGGGGGGGGGGPASCGPGGGGRAKGLKDIRIDEEVKIAVNIALERFRYGDQREMEFPSSLTSTERAFIHRLSQSLGLVSKSKGKGANRYLTVKKKDGSETAHAMMTCNLTHNTKHAVRSLIQRFPVTNKERTELLPKTERGNVFAVEAENREMSKTSGRLNNGIPQVPVKRGESEFDSFRQSLPVFEKQEEIVKIIKENKVVLIVGETGSGKTTQIPQFLLDDCFKNGIPCRIFCTQPRRLAAIAVAERVAAERRERIGQTIGYQIRLESRVSPKTLLTFCTNGVLLRTLMAGDSTLSTVTHVIVDEVHERDRFSDFLLTKLRDLLQKHPTLKLILSSAALDVNLFIRYFGSCPVIYIQGRPFEVKEMFLEDILRTTGYTNKEMLKYKKEKQREEKQQTTLTEWYSAQENTFKPESQRQRAVASVSEEYDLLDDGGDAVFSQLTEKDVNCLEPWLIKEMDACLSDIWLHKDVDAFAQVFHLILTENVSVDYRHSETSATALMVAAGRGFTSQVEQLISMGANVHSKASNGWMALDWAKHFGQTEIVDLLESYSASLEFGNLDESSLVQTNGNDLSAEDRELLKAYHHSFDDEKVDLDLIMHLLYNICHSCDAGAILIFLPGYDEIVGLRDRILFDDKRFADNTHRYQVFMLHSNMQTSDQKKVLKNPPAGVRKIILSTNIAETSITVNDVVFVIDSGKVKEKSFDALNFVTMLKMVWISKASAIQRKGRAGRCRPGICFRLFSRLRFQNMLEFQTPELLRMPLQELCLHTKLLAPVNCTIADFLMKAPEPPPALIVRNAVQMLKTIDAMDAWEDLTELGYHLADLPVEPHLGKMVLCAVVLKCLDPILTIACTLAYRDPFVLPTQASQKRAAMLCRKRFTAGTFSDHMALLRAFQAWQKARSDGWERAFCEKNFLSQATMEIIIGMRTQLLGQLRASGFVRARGGGDIRDVNTNSENWAVVKAALVAGMYPNLVHVDRENVILTGPKEKKVRFHPTSVLSQPQYKKIPPANGQAAAIQALPTDWLIYDEMTRAHRIANIRCCSAVTPVTVLVFCGPARLASNALQEPSSFRADGIPNDSSDSEMEDRTTANLAALKLDEWLNFKLEPEAASLLLQLRQKWHSLFLRRMRAPSKPWSQVDEATIRAIIAVLSTEEQSAGLQQPSGIGQRPRPMSSEELPLASSWRSNNSRKSTADTEFADGSTTGERVLMKSPSPALHPPQKYKDRGILHPKRSTDDRSDQSSVKSTDSSSYPSPCASPSPPSSGKGSKSPSPRPNMPIRYFIMKSSNLRNLEISQQKGIWSTTPSNERKLNRAFWESSMVYLVFSVQGSGHFQGFSRMSSEIGREKSQDWGSAGLGGVFKVEWIRKESLPFQFAHHLLNPWNDNKKVQISRDGQELEPQVGEQLLQLWERLPLGEKTTSD
B2: RNA binding motif protein 46 (RBM46) (protein, UniProt P86049 1-533)
chain: MNEENTDGTNGCSKVRTGTQNEAALLALMEKTGYNMVQENGQRKFGGPPPGWEGPPPPRGCEVFVGKIPRDMYEDELVPVFERAGKIYEFRLMMEFSGENRGYAFVMYTTKEEAQLAIRILNNYEIRPGKFIGVCVSLDNCRLFIGAIPKEKKKEEILDEMKKVTEGVVDVIVYPSATDKTKNRGFAFVEYESHRAAAMARRKLIPGTFQLWGHTIQVDWADPEKEVDEETMQRVKVLYVRNLMISTTEETIKAEFSKFKPGAVERVKKLRDYAFVHFFHREDAVAAMSVMNGKCIDGASIEVTLAKPVNKENTWRQHLNGQISPNSENLLVYANKEESHSKSLGKPPTLPTRLNGQHSPSPPEIERCTYPFFPGTKLTPISMYSLKSNHFNSAVMHLDYYCNKNNWAPPEYYLYSTTSQDGKVLLVYKIVIPAIANGSQSYFMPDKLCTTLEDAKELAAQFTLLHLDFNFRRSSINSLSPVSTTLSSGTPSMLPYTSRPSSYPSYPLSPTISLANGSHVGQRLYISNQASFF
B3: splicing factor 3b subunit 3 (SF3B3) (protein, UniProt Q921M3 1-1217)
chain: MFLYNLTLQRATGISFAIHGNFSGTKQQEIVVSRGKILELLRPDPNTGKVHTLLTVEVFGVIRSLMAFRLTGGTKDYIVVGSDSGRIVILEYQPSKNMFEKIHQETFGKSGCRRIVPGQFLAVDPKGRAVMISAIEKQKLVYILNRDAAARLTISSPLEAHKANTLVYHVVGVDVGFENPMFACLEMDYEEADNDPTGEAAANTQQTLTFYELDLGLNHVVRKYSEPLEEHGNFLITVPGGSDGPSGVLICSENYITYKNFGDQPDIRCPIPRRRNDLDDPERGMIFVCSATHKTKSMFFFLAQTEQGDIFKITLETDEDMVTEIRLKYFDTVPVAAAMCVLKTGFLFVASEFGNHYLYQIAHLGDDDEEPEFSSAMPLEEGDTFFFQPRPLKNLVLVDELDSLSPILFCQIADLANEDTPQLYVACGRGPRSSLRVLRHGLEVSEMAVSELPGNPNAVWTVRRHIEDEFDAYIIVSFVNATLVLSIGETVEEVTDSGFLGTTPTLSCSLLGDDALVQVYPDGIRHIRADKRVNEWKTPGKKTIVKCAVNQRQVVIALTGGELVYFEMDPSGQLNEYTERKEMSADVVCMSLANVPPGEQRSRFLAVGLVDNTVRIISLDPSDCLQPLSMQALPAQPESLCIVEMGGTEKQDELGERGSIGFLYLNIGLQNGVLLRTVLDPVTGDLSDTRTRYLGSRPVKLFRVRMQGQEAVLAMSSRSWLSYSYQSRFHLTPLSYETLEFASGFASEQCPEGIVAISTNTLRILALEKLGAVFNQVAFPLQYTPRKFVIHPESNNLIIIETDHNAYTEATKAQRKQQMAEEMVEAAGEDERELAAEMAAAFLNENLPESIFGAPKAGNGQWASVIRVMNPIQGNTLDLVQLEQNEAAFSVAVCRFSNTGEDWYVLVGVAKDLILSPRSVAGGFVYTYKLVNNGEKLEFLHKTPVEEVPAAIAPFQGRVLIGVGKLLRVYDLGKKKLLRKCENKHIANYISGIQTIGHRVIVSDVQESFIWVRYKRNENQLIIFADDTYPRWVTTASLLDYDTVAGADKFGNICVVRLPPNTNDEVDEDPTGNKALWDRGLLNGASQKAEVIMNYHVGETVLSLQKTTLIPGGSESLVYTTLSGGIGILVPFTSHEDHDFFQHVEMHLRSEHPPLCGRDHLSFRSYYFPVKNVIDGDLCEQFNSMEPNKQKNVSEELDRTPPEVSKKLEDIRTRYAF
B4: splicing factors 3b subunit 1 (SF3B1) (protein, UniProt Q99NB9 1-1304)
chain: MAKIAKTHEDIEAQIREIQGKKAALDEAQGVGLDSTGYYDQEIYGGSDSRFAGYVTSIAATELEDDDDDYSSSTSLLGQKKPGYHAPVALLNDIPQSTEQYDPFAEHRPPKIADREDEYKKHRRTMIISPERLDPFADGGKTPDPKMNARTYMDVMREQHLTKEEREIRQQLAEKAKAGELKVVNGAAASQPPSKRKRRWDQTADQTPGATPKKLSSWDQAETPGHTPSLRWDETPGRAKGSETPGATPGSKIWDPTPSHTPAGAATPGRGDTPGHATPGHGGATSSARKNRWDETPKTERDTPGHGSGWAETPRTDRGGDSIGETPTPGASKRKSRWDETPASQMGGSTPVLTPGKTPIGTPAMNMATPTPGHIMSMTPEQLQAWRWEREIDERNRPLSDEELDAMFPEGYKVLPPPAGYVPIRTPARKLTATPTPLGGMTGFHMQTEDRTMKSVNDQPSGNLPFLKPDDIQYFDKLLVDVDESTLSPEEQKERKIMKLLLKIKNGTPPMRKAALRQITDKAREFGAGPLFNQILPLLMSPTLEDQERHLLVKVIDRILYKLDDLVRPYVHKILVVIEPLLIDEDYYARVEGREIISNLAKAAGLATMISTMRPDIDNMDEYVRNTTARAFAVVASALGIPSLLPFLKAVCKSKKSWQARHTGIKIVQQIAILMGCAILPHLRSLVEIIEHGLVDEQQKVRTISALAIAALAEAATPYGIESFDSVLKPLWKGIRQHRGKGLAAFLKAIGYLIPLMDAEYANYYTREVMLILIREFQSPDEEMKKIVLKVVKQCCGTDGVEANYIKTEILPPFFKHFWQHRMALDRRNYRQLVDTTVELANKVGAAEIISRIVDDLKDEAEQYRKMVMETIEKIMGNLGAADIDHKLEEQLIDGILYAFQEQTTEDSVMLNGFGTVVNALGKRVKPYLPQICGTVLWRLNNKSAKVRQQAADLISRTAVVMKTCQEEKLMGHLGVVLYEYLGEEYPEVLGSILGALKAIVNVIGMHKMTPPIKDLLPRLTPILKNRHEKVQENCIDLVGRIADRGAEYVSAREWMRICFELLELLKAHKKAIRRATVNTFGYIAKAIGPHDVLATLLNNLKVQERQNRVCTTVAIAIVAETCSPFTVLPALMNEYRVPELNVQNGVLKSLSFLFEYIGEMGKDYIYAVTPLLEDALMDRDLVHRQTASAVVQHMSLGVYGFGCEDSLNHLLNYVWPNVFETSPHVIQAVMGALEGLRVAIGPCRMLQYCLQGLFHPARKVRDVYWKIYNSIYIGSQDALIAHYPRIYNDDKNTYIRYDLDYIL
B5: meiosis specific with coiled-coil domain (MEIOC) (protein, UniProt A2AG06 1-965)
chain: MEVSGGDTCRPRHPQGLREGPEPKVAAAAAAFRGSANRCWNLSVDTSNRLSDVFNSMMLTGSAPFYDCYKSQNEDNVDLRQTCTPLSSSTEYASSIDSSLFYAPWSTYGDDIKQPPSSQISVKNRIQTERNDYGSETDLYGLVSNILEEQDKSQPYFAEGTCSSNLKSVWPMNTSRFVDHHDLLTEPKRPVDTSISQQAFYSGESVSAVEKQYLHNSSLTPQQKIDELYHGYTGLDLEEQWLYLSRSDHSNCYNSQANDTVKATFQEYPFVKNCFTPQTGLSDIMKESGIDTYAYGREKICTKGLETPLQHKRAEIFLSQFNRYNENADYCRYPEYAHPNKAKLNKCSNFSVQDGKKLANGTPETPTVEADAYTKLFQVKPANQKKMEETIPDQQNFAFPKTTPHLTEKQFAKEAAFTADFGLKSEYGLKPHTACPTNNDFANVSEKQQFAKPDPLNSEYFKSVNLFSNSATSSGGISLNRPTWMNVQTKNNLPIPYRNQGNLMKLNSHLSAASKGSNHSSDFPQLSSTNLTSNSNLFQKYCQENPSAFSSFDFSYNGAERIQSVNHMEGLTKTGEDNLFESVTEKKIKQPNGFCDSYSASQYGIIENVNKHNFQAKPQSGHYDPEDIPKHFDGLPQNTYQDLLESQGHFNSHRQGSGDNNINSRVNRTQASCFSNNYMMGDLRHNQGFQQLGSNGFPLRSTHPFGHSVVPLLDSYDLFSYDDLSHLYPYFNDMMYGDNSFSGFVPTFGFQRPIKTRSGPASELHIRLEECYEQWRALEKERKKTELALAKNYPGKKVSSTNNTPIPRLTSNPSRVDRLIVDELREQARVVTLLGKMERLRSSPLHANISTALDRHLESIHIVQSRRKDEIVNASNRQRQGVPRCQDDRDVFALATAIKEMCVATRKARTTLWCALQMTLPKTASTAGQADMEKAFQDLVNCEEKVHESINSSNPMNQRGETSKH

Biological target: T1, methyltransferase-like protein 16 (METTL16) (mouse (endogenous in P10 testes)) (UniProt Q9CQG2)
T1 sequence: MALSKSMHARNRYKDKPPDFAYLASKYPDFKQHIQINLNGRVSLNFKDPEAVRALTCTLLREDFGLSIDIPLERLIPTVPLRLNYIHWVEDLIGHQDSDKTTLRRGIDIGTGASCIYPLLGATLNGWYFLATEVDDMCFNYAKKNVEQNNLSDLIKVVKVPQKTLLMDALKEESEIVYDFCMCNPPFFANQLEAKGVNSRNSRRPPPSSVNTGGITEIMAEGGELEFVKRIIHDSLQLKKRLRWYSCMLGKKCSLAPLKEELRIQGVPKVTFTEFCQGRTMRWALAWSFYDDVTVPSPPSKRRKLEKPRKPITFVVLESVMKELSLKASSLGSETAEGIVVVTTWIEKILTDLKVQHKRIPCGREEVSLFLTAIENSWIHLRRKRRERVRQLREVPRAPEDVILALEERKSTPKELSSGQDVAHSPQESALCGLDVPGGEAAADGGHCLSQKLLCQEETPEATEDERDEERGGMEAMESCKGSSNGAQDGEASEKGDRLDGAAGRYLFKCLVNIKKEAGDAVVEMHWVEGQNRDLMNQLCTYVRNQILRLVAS
Assay: co-IP; P10 mouse testis lysates in IP lysis buffer, IP with METTL16 antibody or IgG control (also METTL16 antibody plus RNase A), Protein A magnetic beads, 4 °C, western blot of the eluate

binding, binds:
B1
B2
B3
B4
B5
